Patent publication US20220017615A1
Numbering of substitutions follows the chain as printed. Results are given in words; binding and its absence hold for the method and conditions named. Some entries that bind do so weakly or less than the wild type.

By UniProt entry, the sequences of proteins in these tests, tags left out. Residues count along the entry.
UniProt Q08722, residues 19-139: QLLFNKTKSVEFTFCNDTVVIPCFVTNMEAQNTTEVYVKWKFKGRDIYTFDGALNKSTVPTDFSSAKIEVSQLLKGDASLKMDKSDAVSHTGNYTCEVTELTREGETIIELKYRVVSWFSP

T1: mouse CD47, on CHOK1/mCD47 cells (mouse) (UniProt Q61735)
T1 sequence (looked up): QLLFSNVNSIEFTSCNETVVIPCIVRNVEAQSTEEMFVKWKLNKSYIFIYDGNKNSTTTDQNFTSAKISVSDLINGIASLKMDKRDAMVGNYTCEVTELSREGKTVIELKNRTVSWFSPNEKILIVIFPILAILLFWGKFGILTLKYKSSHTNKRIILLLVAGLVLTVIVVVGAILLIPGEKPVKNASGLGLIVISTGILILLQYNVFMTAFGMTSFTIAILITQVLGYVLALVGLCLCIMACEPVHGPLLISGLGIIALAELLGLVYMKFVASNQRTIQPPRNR

B1: c29A03NA (antibody, V domains shown)
VH: EVQLQQSGAELVKPGASVKMSCKASGYTFTNYWITWVKQRPGQGLEWIGDIYPVSGGTDYNEKFKTRATLTVDTSSSTAYMHLSSLTSEDSAVYYCARKGRGGVDYWGQGTTLTVSS
VL: DILMTQTPLSLPVSLGDQASISCRSSQSIVHSNANTYLEWYLQKPGQSPKLLIYKVSNRFSGVPDRFSGSGSGTDFTLKISRVEAEDLGVYFCSQSTHVPYTFGGGTKLEIK
B2: c4D10B11 (antibody, V domains shown)
VH: QVQLQQSGPELVKPGASVKISCKASGYSFTSYYIHWVKQRPGQGLEWIGWIYPGSGNTKYNEKFKGKATLTADTSSSTADMQLSSLTSEDSAVYYCARRGDWYFDVWGTGTTVTVSS
VL: DIVMSQSPSSLVVSVGEKVTMNCKSSQSLLFSGNQKSSLAWYQQKPGQSPKLLIYWASTRESGVPDRFTGSGSGTDFTLIISTVKAEDLAVYSCQQYYSYPLTFGAGTKLELK
B3: c95E2D10 (antibody, V domains shown)
VH: QIQLQQSGPELVKPGASMKISCKASGYPFTDYYIHWVKQKPGQGLEWIGWIYPGSGNNKYNEKFKGKATLTVDTSPSTVYMQLSSLTSEDTAVYFCARRAGNYFDYWGQGTTLTVSS
VL: NIVMTQSPKSMSRSVGERVTLSCRASENVRTYVFWYQQKPGLSPKLLIYGASNRYIGVPDRFTGSGSATDFTLTISSVQAEDLADYHCGQSYSYPLTFGAGTKLELK
B4: c51E2F11 (antibody, V domains shown)
VH: EVQLQQSGAELVKPGASVKLSCTASGFNIKDHYIHWMNQRTEQGLEWIGRIDPDDGETRYAPKFRGKATLTADTSSNTAYLQFSSLTSEDTAVYHCTRATTITRDWYFDVWGTGTTVTVSS
VL: DIVMTQSQKFMSTSVGDRVSITCKASQNVRTSVAWYQQKPGQSPKALIYLASNRHTGIPDRFTGSGSGTDFTLTIRNVQSEDLADYFCLQHWDYPLTFGAGTKLELK
B5: c25E3B5 (antibody, V domains shown)
VH: QVQLQQPGTALVRPGSSVKLSCKASGYTFTSYWMHWVRQRPIKGLEWIGNIDPSDSETHYNQRFKDKVTLTVDKSSNTAYMQLSSLTSEDSAVYYCARWKYHGIGAMDYWGQGTSVTVSS
VL: DVQITQSPSYLAASPGETVTISCRTNRNISKFLAWYQEKPGKTNKLLIYSGSTLHSGIPSRFSGSGSGTDFTLTISRLEPEDFAMYYCQQHNEYPWSFGGGTKLEIK
B6: c20H4G5 (antibody, V domains shown)
VH: QVQLQQPGAELVRPGSSVRLSCVTSGYTFTSHWMHWVKQGPIKGLEWIGNIDPSDSETHYNQKFKDKATLTVDKSSSTAYMQLSRLTSDDSAVYYCARWRHLGIGAMDYWGQGTSVIVSS
VL: B5 VL with V19I, S22N, T25A, N26S, R27K, E38A, T43S, K45N, H55Q, S97T

Molecular target: T1, mouse CD47, on CHOK1/mCD47 cells (mouse)
Assay: flow cytometry (FACS) on CHOK1-mCD47 cells, mean fluorescence intensity

| binding | Binder |
| --- | --- |
| binds | B1 |

Molecular target: biotin-labeled CD47 extracellular domain protein (CD47-ECD) (UniProt Q08722)
Assay: blocking ELISA: SIRPα-hFc coated, biotin-labeled CD47-ECD added with the antibody, OD450; blocked ligand SIRPα-hFc

| binding | Binder |
| --- | --- |
| binds | B2 |
| binds | B3 |
| binds | B4 |
| binds | B1 |
| binds | B5 |
| binds | B6 |
